Among the data in publication PMC8864237 are binding values, retold here.

Chains of the proteins cited; added tags and fusions are not shown.
UniProt Q9H1Y0: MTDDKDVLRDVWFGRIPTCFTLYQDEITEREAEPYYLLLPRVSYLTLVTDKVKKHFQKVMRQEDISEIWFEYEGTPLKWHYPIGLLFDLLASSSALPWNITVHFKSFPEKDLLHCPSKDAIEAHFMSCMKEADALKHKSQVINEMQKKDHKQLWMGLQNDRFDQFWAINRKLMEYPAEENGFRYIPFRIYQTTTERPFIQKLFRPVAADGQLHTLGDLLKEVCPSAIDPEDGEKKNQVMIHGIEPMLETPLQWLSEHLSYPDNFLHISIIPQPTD
UniProt P46934: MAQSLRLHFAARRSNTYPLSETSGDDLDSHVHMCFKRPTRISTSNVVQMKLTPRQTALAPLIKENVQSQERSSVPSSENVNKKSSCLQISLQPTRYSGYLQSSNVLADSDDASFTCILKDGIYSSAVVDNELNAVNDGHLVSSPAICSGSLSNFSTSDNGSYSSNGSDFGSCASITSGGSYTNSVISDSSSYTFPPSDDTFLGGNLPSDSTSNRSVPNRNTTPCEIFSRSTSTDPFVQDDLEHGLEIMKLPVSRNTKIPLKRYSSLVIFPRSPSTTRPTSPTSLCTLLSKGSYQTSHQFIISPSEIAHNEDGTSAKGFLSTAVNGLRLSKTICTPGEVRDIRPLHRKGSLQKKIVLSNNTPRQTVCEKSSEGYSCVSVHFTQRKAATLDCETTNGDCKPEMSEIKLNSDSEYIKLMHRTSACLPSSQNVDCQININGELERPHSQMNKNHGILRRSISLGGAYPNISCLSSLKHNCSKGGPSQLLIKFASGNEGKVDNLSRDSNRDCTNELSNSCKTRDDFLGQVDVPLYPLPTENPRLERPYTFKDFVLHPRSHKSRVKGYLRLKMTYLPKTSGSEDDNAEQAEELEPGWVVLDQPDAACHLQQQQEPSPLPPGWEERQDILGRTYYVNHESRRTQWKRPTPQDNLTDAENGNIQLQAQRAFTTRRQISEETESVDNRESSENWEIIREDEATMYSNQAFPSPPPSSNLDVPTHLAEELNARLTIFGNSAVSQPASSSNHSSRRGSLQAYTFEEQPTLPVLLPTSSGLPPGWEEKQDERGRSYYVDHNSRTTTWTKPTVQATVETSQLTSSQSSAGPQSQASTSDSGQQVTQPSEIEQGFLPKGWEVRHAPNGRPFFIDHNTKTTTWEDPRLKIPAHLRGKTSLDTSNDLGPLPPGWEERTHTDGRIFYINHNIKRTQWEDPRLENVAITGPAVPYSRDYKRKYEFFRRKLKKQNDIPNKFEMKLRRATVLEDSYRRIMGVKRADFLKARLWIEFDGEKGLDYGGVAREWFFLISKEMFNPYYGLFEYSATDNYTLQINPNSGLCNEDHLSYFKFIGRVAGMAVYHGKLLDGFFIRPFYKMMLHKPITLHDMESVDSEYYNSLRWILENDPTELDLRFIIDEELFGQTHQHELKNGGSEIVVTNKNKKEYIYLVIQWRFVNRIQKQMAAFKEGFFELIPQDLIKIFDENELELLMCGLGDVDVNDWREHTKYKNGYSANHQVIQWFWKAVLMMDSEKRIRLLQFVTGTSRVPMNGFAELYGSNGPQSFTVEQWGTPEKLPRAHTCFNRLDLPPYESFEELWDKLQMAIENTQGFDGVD

The target in experiment [1] is FLAG-hATG5 (human ATG5) (human) (UniProt Q9H1Y0). In words: co-IP; 293FT cells co-transfected with His-UB, FLAG-hATG5 or FLAG-hATG7 and pcDNA3.1 vector, CSP-HA, CSPΔNLS-HA or NLS-HA; 10 μM MG-132 for 24 h; FLAG proteins captured on anti-FLAG M2 magnetic beads, washed five times (50 mM Tris HCl, 150 mM NaCl, pH 7.4); blot with rabbit anti-NEDD4.
The target of experiment [2] is T1, FLAG-hATG7 (human ATG7) (human) (UniProt O95352).
T1 sequence: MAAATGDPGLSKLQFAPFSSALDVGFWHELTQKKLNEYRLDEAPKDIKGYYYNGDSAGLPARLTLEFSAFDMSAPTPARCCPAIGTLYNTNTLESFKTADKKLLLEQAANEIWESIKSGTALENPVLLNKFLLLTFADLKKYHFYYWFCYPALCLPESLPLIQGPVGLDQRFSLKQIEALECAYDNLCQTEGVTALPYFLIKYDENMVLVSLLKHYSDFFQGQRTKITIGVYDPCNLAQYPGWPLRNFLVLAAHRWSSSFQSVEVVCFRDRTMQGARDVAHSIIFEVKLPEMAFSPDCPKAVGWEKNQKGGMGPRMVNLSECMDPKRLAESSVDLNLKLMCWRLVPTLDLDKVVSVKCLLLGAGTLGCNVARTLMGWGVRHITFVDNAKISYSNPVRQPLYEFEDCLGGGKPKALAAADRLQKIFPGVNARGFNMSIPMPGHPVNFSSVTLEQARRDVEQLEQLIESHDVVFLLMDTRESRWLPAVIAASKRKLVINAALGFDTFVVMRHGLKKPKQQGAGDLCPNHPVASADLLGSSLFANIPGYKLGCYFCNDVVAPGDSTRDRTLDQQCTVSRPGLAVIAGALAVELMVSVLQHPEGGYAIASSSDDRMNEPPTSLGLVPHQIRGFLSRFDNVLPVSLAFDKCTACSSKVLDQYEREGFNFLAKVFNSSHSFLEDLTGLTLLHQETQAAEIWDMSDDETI
The description is as above.

These are yes or no findings as the source states them, for the method shown. Binding seen in cells or lysates may run through a third protein. Some results given as binding are weak or reduced against the parent protein; the word gives no strength. For some assays here: Sequences can lack the tags named with a protein.

With “E3 ubiquitin ligase NEDD4 (neural precursor cell expressed, developmentally down-regulated 4) (from UniProt P46934 1-1319) (enzyme)”, the binding result in experiment [1] and in experiment [2] was “binds” in each case.
